For the assay, the target named is Epidermal growth factor receptor (mouse (endogenous in neural progenitor cells from C57BL/6 mice)) (UniProt Q01279). In words: co-IP; Pierce Co-IP Kit; antibody against GPNMB or EGFR coupled to AminoLink Plus resin, IgG as negative control; pre-cleaned cell lysate (1 mg protein) in 25 mM Tris, 150 mM NaCl, 1 mM EDTA, 1% NP-40, 5% glycerol, pH 7.4; 4 °C for 2 h; Western blot with anti-GPNMB or anti-EGFR. In general terms: In western blotting, separated proteins are transferred to a membrane and probed.

Results are given in words; binding and its absence hold for the method and conditions named. Binding seen in cells or lysates may run through a third protein. Some results given as binding are weak or reduced against the parent protein; the word gives no strength.

This note sets out measurements from paper PMC9938639.

B1: Glycoprotein non-metastatic melanoma B (protein, UniProt Q99P91 23-574)
chain: KRFRDVLGHEQYPDHMREHNQLRGWSSDENEWDEHLYPVWRRGDGRWKDSWEGGRVQAVLTSDSPALVGSNITFVVNLVFPRCQKEDANGNIVYEKNCRNDLGLTSDLHVYNWTAGADDGDWEDGTSRSQHLRFPDRRPFPRPHGWKKWSFVYVFHTLGQYFQKLGRCSARVSINTVNLTAGPQVMEVTVFRRYGRAYIPISKVKDVYVITDQIPVFVTMSQKNDRNLSDEIFLRDLPIVFDVLIHDPSHFLNDSAISYKWNFGDNTGLFVSNNHTLNHTYVLNGTFNLNLTVQTAVPGPCPPPSPSTPPPPSTPPSPPPSPLPTLSTPSPSLMPTGYKSMELSDISNENCRINRYGYFRATITIVEGILEVSIMQIADVPMPTPQPANSLMDFTVTCKGATPMEACTIISDPTCQIAQNRVCSPVAVDGLCLLSVRRAFNGSGTYCVNFTLGDDASLALTSTLISIPGKDPDSPLRAVNGVLISIGCLAVLVTMVTILLYKKHKAYKPIGNCPRNTVKGKGLSVLLSHAKAPFFRGDQEKDPLLQDKPRTL
B1: the binding entry is “binds”.
